Test results published in the supplement of paper PMC10849652.
The other results are listed elsewhere or left out.

The chains behind the UniProt entries cited, without tags or fusion partners. Where a name states a change or a piece, a line headed by the entry shows the natural chain unless it says otherwise.
UniProt Q9BW71: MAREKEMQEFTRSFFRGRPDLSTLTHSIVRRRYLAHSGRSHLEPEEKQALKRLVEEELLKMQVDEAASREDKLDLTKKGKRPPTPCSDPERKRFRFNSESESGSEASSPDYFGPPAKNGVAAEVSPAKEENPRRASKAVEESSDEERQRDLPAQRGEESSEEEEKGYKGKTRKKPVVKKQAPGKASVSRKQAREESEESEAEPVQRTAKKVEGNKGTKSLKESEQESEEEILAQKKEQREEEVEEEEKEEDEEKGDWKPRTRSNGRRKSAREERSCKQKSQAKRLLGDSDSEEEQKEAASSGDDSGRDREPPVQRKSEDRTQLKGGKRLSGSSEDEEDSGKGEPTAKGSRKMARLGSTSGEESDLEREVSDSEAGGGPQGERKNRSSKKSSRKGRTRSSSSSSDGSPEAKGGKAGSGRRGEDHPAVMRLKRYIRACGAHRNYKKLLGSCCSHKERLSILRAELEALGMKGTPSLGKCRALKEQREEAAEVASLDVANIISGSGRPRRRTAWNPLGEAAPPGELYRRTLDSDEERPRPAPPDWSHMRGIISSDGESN
UniProt P08397: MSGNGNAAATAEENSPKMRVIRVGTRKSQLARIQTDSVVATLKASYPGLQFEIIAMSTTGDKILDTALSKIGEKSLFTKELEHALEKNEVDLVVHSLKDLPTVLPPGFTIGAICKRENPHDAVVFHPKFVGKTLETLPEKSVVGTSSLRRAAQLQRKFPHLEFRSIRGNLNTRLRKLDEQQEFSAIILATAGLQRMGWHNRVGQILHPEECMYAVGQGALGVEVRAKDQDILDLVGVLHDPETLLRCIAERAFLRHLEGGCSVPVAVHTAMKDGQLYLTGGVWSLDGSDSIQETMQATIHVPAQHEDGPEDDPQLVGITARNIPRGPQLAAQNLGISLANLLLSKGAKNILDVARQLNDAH
UniProt O00291: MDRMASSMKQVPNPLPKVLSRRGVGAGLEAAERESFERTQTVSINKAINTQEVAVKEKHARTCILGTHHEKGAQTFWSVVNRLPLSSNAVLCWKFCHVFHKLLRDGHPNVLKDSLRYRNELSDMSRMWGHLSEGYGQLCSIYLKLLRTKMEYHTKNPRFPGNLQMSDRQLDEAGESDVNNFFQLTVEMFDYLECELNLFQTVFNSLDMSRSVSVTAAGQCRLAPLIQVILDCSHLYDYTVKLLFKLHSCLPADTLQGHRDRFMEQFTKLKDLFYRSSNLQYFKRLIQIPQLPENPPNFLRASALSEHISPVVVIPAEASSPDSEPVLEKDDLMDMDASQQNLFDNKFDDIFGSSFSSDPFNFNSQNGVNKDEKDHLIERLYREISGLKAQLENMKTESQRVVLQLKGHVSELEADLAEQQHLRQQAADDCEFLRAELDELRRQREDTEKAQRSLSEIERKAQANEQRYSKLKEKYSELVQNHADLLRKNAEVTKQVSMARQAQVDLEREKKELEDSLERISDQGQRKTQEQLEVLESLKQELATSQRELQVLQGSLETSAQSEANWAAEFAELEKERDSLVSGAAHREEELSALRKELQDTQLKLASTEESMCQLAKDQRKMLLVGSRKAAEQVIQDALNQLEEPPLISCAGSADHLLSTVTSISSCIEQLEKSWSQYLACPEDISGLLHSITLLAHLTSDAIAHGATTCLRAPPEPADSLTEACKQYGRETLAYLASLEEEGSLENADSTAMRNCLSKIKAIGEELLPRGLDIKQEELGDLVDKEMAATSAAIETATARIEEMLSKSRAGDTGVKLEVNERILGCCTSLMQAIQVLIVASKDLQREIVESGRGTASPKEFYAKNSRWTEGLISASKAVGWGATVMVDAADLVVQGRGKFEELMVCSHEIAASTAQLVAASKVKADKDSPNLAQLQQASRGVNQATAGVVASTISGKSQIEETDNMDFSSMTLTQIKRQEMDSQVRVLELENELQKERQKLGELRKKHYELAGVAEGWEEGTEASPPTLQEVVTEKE
UniProt P09429: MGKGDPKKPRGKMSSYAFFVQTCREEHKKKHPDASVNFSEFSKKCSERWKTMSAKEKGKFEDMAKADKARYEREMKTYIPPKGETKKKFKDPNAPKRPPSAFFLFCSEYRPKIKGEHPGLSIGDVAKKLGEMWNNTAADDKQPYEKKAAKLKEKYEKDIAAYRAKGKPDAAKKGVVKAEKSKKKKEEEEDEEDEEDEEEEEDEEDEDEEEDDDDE
UniProt Q7Z6Z7, whole entry, looked up: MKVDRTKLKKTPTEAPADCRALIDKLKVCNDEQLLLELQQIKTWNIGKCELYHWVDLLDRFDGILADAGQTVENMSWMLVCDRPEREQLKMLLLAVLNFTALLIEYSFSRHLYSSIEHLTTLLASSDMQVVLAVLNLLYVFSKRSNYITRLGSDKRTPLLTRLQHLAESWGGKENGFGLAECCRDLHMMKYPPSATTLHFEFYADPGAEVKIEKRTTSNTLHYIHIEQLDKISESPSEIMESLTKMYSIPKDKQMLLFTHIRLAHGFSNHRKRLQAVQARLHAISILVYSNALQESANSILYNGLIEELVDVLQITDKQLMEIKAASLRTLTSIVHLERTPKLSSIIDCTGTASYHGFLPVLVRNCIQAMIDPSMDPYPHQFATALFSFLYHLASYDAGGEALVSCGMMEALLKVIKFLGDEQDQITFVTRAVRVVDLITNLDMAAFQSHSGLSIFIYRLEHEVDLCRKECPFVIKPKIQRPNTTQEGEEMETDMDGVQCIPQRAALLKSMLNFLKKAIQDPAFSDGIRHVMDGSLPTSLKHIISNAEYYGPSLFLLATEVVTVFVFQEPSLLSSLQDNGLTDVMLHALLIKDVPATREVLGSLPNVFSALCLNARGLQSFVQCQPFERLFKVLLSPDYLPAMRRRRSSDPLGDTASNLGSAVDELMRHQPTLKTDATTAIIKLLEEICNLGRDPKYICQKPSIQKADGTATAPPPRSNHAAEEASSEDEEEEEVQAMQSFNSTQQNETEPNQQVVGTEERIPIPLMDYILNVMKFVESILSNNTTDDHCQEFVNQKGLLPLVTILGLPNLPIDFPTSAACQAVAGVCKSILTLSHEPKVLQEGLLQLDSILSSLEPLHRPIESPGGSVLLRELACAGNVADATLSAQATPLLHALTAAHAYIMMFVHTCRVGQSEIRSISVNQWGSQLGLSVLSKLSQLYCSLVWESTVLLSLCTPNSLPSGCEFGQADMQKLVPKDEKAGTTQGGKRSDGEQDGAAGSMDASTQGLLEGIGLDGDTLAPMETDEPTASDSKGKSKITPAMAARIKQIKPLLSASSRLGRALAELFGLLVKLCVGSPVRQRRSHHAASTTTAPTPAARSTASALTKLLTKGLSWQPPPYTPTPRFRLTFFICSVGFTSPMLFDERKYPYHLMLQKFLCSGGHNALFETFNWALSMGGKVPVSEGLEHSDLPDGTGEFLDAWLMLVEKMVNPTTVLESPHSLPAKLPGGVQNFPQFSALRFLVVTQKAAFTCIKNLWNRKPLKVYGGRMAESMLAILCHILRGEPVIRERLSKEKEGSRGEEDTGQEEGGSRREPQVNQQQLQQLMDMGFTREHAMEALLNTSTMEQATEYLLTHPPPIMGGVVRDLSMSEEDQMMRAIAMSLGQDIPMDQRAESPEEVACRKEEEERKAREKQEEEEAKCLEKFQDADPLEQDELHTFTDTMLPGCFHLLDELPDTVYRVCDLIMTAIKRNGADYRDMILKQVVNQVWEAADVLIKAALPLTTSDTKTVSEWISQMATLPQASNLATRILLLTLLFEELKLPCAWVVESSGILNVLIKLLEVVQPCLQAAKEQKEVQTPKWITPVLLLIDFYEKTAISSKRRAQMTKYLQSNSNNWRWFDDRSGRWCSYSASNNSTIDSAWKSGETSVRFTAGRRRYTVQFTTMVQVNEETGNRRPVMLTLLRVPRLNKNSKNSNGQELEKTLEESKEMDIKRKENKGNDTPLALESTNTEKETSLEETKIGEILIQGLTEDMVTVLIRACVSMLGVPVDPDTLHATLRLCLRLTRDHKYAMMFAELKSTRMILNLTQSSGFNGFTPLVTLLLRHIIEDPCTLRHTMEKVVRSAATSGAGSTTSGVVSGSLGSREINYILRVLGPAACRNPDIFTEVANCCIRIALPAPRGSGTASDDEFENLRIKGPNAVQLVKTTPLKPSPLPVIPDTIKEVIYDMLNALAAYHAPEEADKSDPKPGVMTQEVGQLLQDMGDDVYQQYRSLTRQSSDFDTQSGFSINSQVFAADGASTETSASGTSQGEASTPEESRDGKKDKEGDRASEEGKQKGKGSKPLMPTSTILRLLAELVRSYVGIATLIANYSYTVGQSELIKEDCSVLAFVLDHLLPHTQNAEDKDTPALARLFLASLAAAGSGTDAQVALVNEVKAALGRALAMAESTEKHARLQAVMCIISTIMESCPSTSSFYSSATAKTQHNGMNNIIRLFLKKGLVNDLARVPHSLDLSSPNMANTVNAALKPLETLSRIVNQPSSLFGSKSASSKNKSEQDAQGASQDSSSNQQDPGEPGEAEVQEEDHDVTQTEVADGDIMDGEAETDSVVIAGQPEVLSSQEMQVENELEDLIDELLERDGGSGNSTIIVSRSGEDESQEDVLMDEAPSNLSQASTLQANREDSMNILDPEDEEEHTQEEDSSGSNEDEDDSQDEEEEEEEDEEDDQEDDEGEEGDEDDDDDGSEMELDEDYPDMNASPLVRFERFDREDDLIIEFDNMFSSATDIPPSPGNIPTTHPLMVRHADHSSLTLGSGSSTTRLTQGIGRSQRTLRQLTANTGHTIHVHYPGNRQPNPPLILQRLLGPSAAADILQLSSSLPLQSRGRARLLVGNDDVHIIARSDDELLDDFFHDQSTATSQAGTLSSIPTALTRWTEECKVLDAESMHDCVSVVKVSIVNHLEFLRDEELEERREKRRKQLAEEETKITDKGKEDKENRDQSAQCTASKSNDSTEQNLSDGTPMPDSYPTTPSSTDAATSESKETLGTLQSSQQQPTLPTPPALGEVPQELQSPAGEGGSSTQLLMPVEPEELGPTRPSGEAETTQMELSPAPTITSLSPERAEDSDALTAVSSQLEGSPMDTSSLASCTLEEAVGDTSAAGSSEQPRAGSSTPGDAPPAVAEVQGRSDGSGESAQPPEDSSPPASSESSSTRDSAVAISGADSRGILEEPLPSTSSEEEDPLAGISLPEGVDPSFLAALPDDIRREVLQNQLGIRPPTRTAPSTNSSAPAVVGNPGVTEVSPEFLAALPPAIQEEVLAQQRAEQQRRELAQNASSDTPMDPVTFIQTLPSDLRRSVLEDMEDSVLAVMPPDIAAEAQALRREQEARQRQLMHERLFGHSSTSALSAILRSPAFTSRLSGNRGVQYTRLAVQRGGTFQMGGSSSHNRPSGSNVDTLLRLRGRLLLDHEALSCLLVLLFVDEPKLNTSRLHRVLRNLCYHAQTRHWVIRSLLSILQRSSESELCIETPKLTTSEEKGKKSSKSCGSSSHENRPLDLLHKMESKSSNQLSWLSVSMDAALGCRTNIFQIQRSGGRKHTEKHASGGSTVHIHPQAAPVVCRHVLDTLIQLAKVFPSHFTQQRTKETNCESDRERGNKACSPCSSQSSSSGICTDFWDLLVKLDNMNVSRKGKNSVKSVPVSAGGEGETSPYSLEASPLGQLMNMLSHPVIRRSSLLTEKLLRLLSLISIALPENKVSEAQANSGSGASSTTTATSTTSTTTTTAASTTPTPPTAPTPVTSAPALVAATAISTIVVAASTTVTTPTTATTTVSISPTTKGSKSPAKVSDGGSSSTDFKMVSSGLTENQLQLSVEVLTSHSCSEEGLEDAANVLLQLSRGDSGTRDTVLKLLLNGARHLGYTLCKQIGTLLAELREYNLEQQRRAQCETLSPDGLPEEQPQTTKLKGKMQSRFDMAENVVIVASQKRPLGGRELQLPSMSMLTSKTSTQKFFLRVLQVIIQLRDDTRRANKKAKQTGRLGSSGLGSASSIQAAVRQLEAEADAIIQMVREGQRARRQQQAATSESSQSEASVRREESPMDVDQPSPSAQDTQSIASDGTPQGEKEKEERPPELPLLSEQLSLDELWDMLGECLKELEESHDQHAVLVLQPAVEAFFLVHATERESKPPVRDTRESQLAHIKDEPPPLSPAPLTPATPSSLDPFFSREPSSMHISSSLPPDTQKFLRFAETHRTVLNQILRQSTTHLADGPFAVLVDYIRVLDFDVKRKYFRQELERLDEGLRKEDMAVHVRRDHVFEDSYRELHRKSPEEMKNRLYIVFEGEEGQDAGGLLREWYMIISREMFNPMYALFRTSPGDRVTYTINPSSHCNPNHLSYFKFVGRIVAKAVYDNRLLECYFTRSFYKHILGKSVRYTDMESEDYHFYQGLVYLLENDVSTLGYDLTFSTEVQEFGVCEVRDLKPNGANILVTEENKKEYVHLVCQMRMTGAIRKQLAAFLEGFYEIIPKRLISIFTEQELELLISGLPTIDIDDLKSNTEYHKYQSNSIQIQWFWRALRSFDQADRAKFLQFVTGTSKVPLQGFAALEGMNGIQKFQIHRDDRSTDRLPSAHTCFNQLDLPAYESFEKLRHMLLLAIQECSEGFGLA

Compound: O=C(CCCCCCNC(=O)c1cnc(N(c2ccccc2)c2ccccc2Cl)nc1)NO [citarinostat]
Test: log2 fold change, soluble protein after heating vs DMSO (PISA); higher = thermal stabilisation; K562 cells, 10 uM, 30 min; active = over 0.2 and 3.5 SD of the protein, either way, in both replicates (recomputed)
Summary of the method: (§1)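 K562 cells at 2×10^6 cells/mL were treated for 30 min with 10 μM compound, and aliquots were heated for 3 min over 48°C-58°C before pooling. Extraction used PBS with 0.5% NP-40 at 4°C, and soluble protein was the supernatant after 21,000xg for 90 min, measured by TMTpro 16plex LC-MS/MS with channel sums equalised. Thermal stability values, relative to control samples and from duplicates, are log2 fold changes.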

log2 fold change, inactive:
HIRIP3 (UniProt Q9BW71) 0.04
HMBS (UniProt P08397) 0.01
HMGCL (UniProt P35914) 0.047
HINT1 (UniProt P49773) -0.006
HNRNPA1 (UniProt H0YH80) -0.16
HYOU1, A0A494C039 0.042
HIP1 (UniProt O00291) 0.072
HNRNPUL2 (UniProt Q1KMD3) -0.077
HSD17B4 (UniProt P51659) 0.006
HSPA8 (UniProt P11142) -0.026
HSPA14 (UniProt Q0VDF9) 0.033
HIP1R (UniProt O75146) 0.022
HSD17B12 (UniProt Q53GQ0) 0.14
HMGCS1 (UniProt Q01581) 0.03
HGS (UniProt O14964) 0.062
HMGB1 (UniProt P09429) -0.002
HM13 isoform 2 (UniProt Q8TCT9) -0.002
HNRNPK isoform 2 (UniProt P61978) 0.05
HSPA6 (UniProt P17066) -0.009
HMGN4 (UniProt O00479) 0.144
HSPA8 (UniProt E9PN89) -0.304
IDE (UniProt P14735) 0.013
HNRNPDL (UniProt O14979) -0.093
HUWE1 (UniProt Q7Z6Z7) 0.026
HSPA4L (UniProt O95757) 0.018
HMGN5 (UniProt Q5JSK9) -0.245
HLCS (UniProt P50747) -0.001
HIST2H2BC (UniProt Q6DN03) -0.035
HHEX (UniProt Q03014) 0.029
HMGN3 (UniProt Q15651) -0.063
HTD2 (UniProt P86397) -0.028
HSDL1 (UniProt Q3SXM5) 0.003
HTATIP2 isoform 3 (UniProt Q9BUP3) 0.05

Compound: O=C(O)c1ccc2c(c1)nc(Nc1cccc(Cl)c1)c1ccncc12 [silmitasertib]
Test: as above
Summary of the method: as §1

log2 fold change, inactive:
HIRIP3 (UniProt Q9BW71) -0.011
HMBS (UniProt P08397) -0.044
HMGCL (UniProt P35914) -0.107
HINT1 (UniProt P49773) -0.024
HNRNPA1 (UniProt H0YH80) 0.04
HYOU1, A0A494C039 0.101
HIP1 (UniProt O00291) -0.123
HNRNPUL2 (UniProt Q1KMD3) 0.046
HSD17B4 (UniProt P51659) 0.021
HSPA8 (UniProt P11142) -0.015
HSPA14 (UniProt Q0VDF9) 0.054
HIP1R (UniProt O75146) 0
HSD17B12 (UniProt Q53GQ0) 0.037
HMGCS1 (UniProt Q01581) -0.017
HGS (UniProt O14964) 0.007
HMGB1 (UniProt P09429) -0.052
HM13 isoform 2 (UniProt Q8TCT9) 0.026
HNRNPK isoform 2 (UniProt P61978) -0.017
HSPA6 (UniProt P17066) 0.032
HMGN4 (UniProt O00479) -0.358
HSPA8 (UniProt E9PN89) 0.365
IDE (UniProt P14735) 0.012
HNRNPDL (UniProt O14979) 0.183
HUWE1 (UniProt Q7Z6Z7) 0.008
HSPA4L (UniProt O95757) 0.021
HMGN5 (UniProt Q5JSK9) 0.031
HLCS (UniProt P50747) 0.048
HIST2H2BC (UniProt Q6DN03) -0.068
HHEX (UniProt Q03014) -0.018
HMGN3 (UniProt Q15651) -0.04
HTD2 (UniProt P86397) 0.093
HSDL1 (UniProt Q3SXM5) -0.002
HTATIP2 isoform 3 (UniProt Q9BUP3) 0.01

Compound: O=C1NC(=O)C(c2cnc3ccccn23)=C1c1cn2c3c(cc(F)cc13)CN(C(=O)N1CCCCC1)CC2
Test: as above
Summary of the method: as §1

log2 fold change, inactive:
HIRIP3 (UniProt Q9BW71) -0.029
HMBS (UniProt P08397) 0.017
HMGCL (UniProt P35914) -0.001
HINT1 (UniProt P49773) -0.081
HNRNPA1 (UniProt H0YH80) 0.303
HYOU1, A0A494C039 0.026
HIP1 (UniProt O00291) -0.146
HNRNPUL2 (UniProt Q1KMD3) 0.15
HSD17B4 (UniProt P51659) -0.066
HSPA8 (UniProt P11142) 0.003
HSPA14 (UniProt Q0VDF9) 0.129
HIP1R (UniProt O75146) -0.024
HSD17B12 (UniProt Q53GQ0) -0.146
HMGCS1 (UniProt Q01581) -0.033
HGS (UniProt O14964) -0.006
HMGB1 (UniProt P09429) -0.043
HM13 isoform 2 (UniProt Q8TCT9) -0.051
HNRNPK isoform 2 (UniProt P61978) -0.137
HSPA6 (UniProt P17066) -0.012
HMGN4 (UniProt O00479) 0.491
HSPA8 (UniProt E9PN89) -0.102
IDE (UniProt P14735) -0.007
HNRNPDL (UniProt O14979) 0.152
HUWE1 (UniProt Q7Z6Z7) -0.01
HSPA4L (UniProt O95757) -0.051
HMGN5 (UniProt Q5JSK9) 0.045
HLCS (UniProt P50747) -0.01
HIST2H2BC (UniProt Q6DN03) 0.074
HHEX (UniProt Q03014) 0.006
HMGN3 (UniProt Q15651) -0.042
HTD2 (UniProt P86397) -0.106
HSDL1 (UniProt Q3SXM5) -0.016
HTATIP2 isoform 3 (UniProt Q9BUP3) -0.066
